Results on 40 molecules are retold here after PubChem BioAssay AID2685 (National Center for Advancing Translational Sciences (NCATS), 2010).

The term AC50 denotes the concentration giving half of the maximal activity seen.

The nature of this test: qHTS Assay for Lipid Storage Modulators in Drosophila S3 Cells.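 As to cell number change: cells counted by Cell Tracker Red CMTPX staining in the red channel.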 As to conditions: BODIPY lipid droplet fluorescence, 18-24 h; for cell number change: measured here: cell count max response, cells fed with added oleic acid. The procedure, abridged: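 Laser-scanning cytometry quantifies lipid droplet accumulation (500–530 nm total intensity; droplet/cell object ratio) in oleic acid-fed (400 uM added) Drosophila S3 cells treated with a concentration series. 20 uM Triacsin C defined 100% inhibition.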
On the technique in general: qHTS replaces the single test concentration by a dilution series.

Setting [1] is: measured here: lipid fluorescence (Fed channel) AC50, cells fed with added oleic acid.
[2] abbreviates: measured here: cell number channel AC50, cells fed with added oleic acid.

This is one part of the list. Shown are side measurements of this screen, not its main read-out; they come without a call. The list favours compounds with an active or inconclusive main result. The note in brackets gives the kind of curve behind each potency; many fits are weak.

In the case of `O=C(O)c1ccccc1CSc1nc2ccccc2[nH]1`, the cell number change stood at 11.7%. Further, the AC50 under setting [1] was 1.16 µM [rising, single point]. Turning to `O=c1ccc(=O)n2n1CC(O)C2`, the cell number change is -6.14%. In addition, the AC50 under setting [1] is 0.461 µM [rising, full curve]. As to `Cc1oc(CC(C)C)cc1C(N)=O`, the cell number change was -17.2%. Moreover, the AC50 under setting [1] is 23.1 µM [falling, partial curve, poor fit].

For the molecule `CC(C)CC(=O)N1CCN(S(=O)(=O)c2ccccc2)CC1`, the AC50 under setting [2] was 0.291 µM [rising, full curve, poor fit].

In the case of `O=C(COC(=O)c1ccc(Sc2ccccc2)c([N+](=O)[O-])c1)NC1CCCc2ccccc21` (configuration not stated), the AC50 under setting [2] is 0.58 µM [rising, single point]. In the case of `S=C(Nc1ccc(Oc2ccccc2)cc1)Nc1cccnc1`, the cell number change is -3.65%. For the molecule `Cc1ccc(-c2nc(CN(Cc3c(C)nn(C)c3C)C(C)C)c(C)o2)o1`, the cell number change was 13.4%. In addition, under setting [1], the concentration at half-maximal activity (AC50) is 29.1 µM [rising, single point]. On to `C=C(C)COc1ccc2c(C)c(CCC(=O)NC3CC3)c(=O)oc2c1`, for which the cell number change was 17.2%. Under setting [1], the AC50 is 29.1 µM [rising, single point]. For `CCCC1=C(C(=O)OCC)C(c2ccc(N(C)C)cc2)n2ncnc2N1` (configuration not stated), the cell number change is -10.8%. The AC50 under setting [1] was 2.31 µM [rising, single point]. On to `CN(NC(N)=O)c1ncc(C(F)(F)F)cc1Cl`, for which the cell number change was -82.3%. Further, under setting [2], the half-maximal activity concentration (AC50) is 29.1 µM [falling, single point]. Further, the AC50 under setting [1] was 29.1 µM [falling, single point]. As for `CCCCc1ccc(-c2nc(N)n[nH]2)cc1`, the cell number change was -19%. Moreover, under setting [1], the half-maximal activity concentration (AC50) is 29.1 µM [falling, single point].

For the molecule `O=C(Cc1ccccc1)Nc1ccc(NC(=O)c2cccs2)cc1Cl`, the cell number change worked out at 31.6%. In addition, the half-maximal activity concentration (AC50) under setting [2] was 9.2 µM [rising, partial curve, poor fit]. Besides, the concentration at half-maximal activity (AC50) under setting [1] was 11.6 µM [rising, single point]. `CCOC(=O)N1CCN(CC(=O)Nc2c(C(=O)OC)[nH]c3cc(C)ccc23)CC1`: the cell number change is -15.1%. Further, the half-maximal activity concentration (AC50) under setting [2] is 0.00461 µM [falling, full curve, poor fit].

For `Cc1ccc(S(=O)(=O)/N=C(/Nc2ccc(O)c(C(=O)O)c2)c2ccccc2)cc1`, the cell number change was -22.9%. Besides, under setting [1], the concentration at half-maximal activity (AC50) was 0.0164 µM [falling, full curve, poor fit].

With `Oc1cc(-c2ccccc2)c2ccccc2c1`, the cell number change is -65.6%. The AC50 under setting [2] was 32.6 µM [falling, partial curve]. Moreover, under setting [1], the AC50 was 14.6 µM [falling, partial curve, poor fit].

Consider `Cc1cc(Cl)cc(Br)c1OCCCNCC(C)O` (configuration not stated), for which the cell number change amounted to 131%. The AC50 under setting [2] is 23.1 µM [rising, partial curve]. Turning to `COc1ccc(S(=O)(=O)NC(C)C)cc1-n1cnnn1`, the cell number change came out at 14.4%. Also, under setting [1], the half-maximal activity concentration (AC50) is 0.651 µM [falling, full curve]. With `CC(Oc1ccc(F)cc1Br)c1nc2ccccc2c(=O)[nH]1` (configuration not stated), the cell number change is -21.9%. For `CC(=O)N/C(=C\c1ccc(F)cc1)C(=O)NC(Cc1ccccc1)C(=O)O` (configuration not stated), the cell number change is -13.7%. Further, the AC50 under setting [2] is 2.59 µM [rising, single point].

For `C/C(=N\NC(=O)c1cccnc1)c1ccc(-n2ccnc2)cc1`, the cell number change came out at 3.42%. The AC50 under setting [1] was 0.259 µM [falling, full curve, poor fit]. For the molecule `C[N+]1(CCOc2ccc([N+](=O)[O-])cc2)CCOCC1`, the cell number change came to 5.58%. The AC50 under setting [1] is 10.3 µM [rising, single point]. For the molecule `CCc1cc2ccc(C)cc2nc1SCC(=O)Nc1cc(OC)c(OC)cc1C(=O)O`, the cell number change stood at 44.8%. Further, under setting [2], the AC50 was 9.2 µM [rising, partial curve]. Further, under setting [1], the AC50 was 23.1 µM [rising, single point]. Turning to `Cc1cccc(Nc2nc(NCc3ccco3)nc(N3CCOCC3)n2)c1`, the cell number change is -14.9%. Further, the concentration at half-maximal activity (AC50) under setting [1] is 2.91 µM [rising, full curve]. Take `O=C(CCn1[nH]c(=O)c2ccccc2c1=O)N1CCOCC1`: the cell number change is -91.4%. The AC50 under setting [2] was 16.4 µM [falling, single point]. Also, the half-maximal activity concentration (AC50) under setting [1] was 29.1 µM [rising, single point]. Turning to `CS(=O)(=O)N1N=C(c2ccc3nccnc3c2)CC1c1ccccc1` (configuration not stated), the cell number change was 6%.

Regarding `COc1ccc2cc3cc(C(=O)N4CCCCC4C)oc3nc2c1` (configuration not stated), the AC50 under setting [1] is 5.17 µM [rising, single point]. Same read-out and setting: in the case of `CC(=O)Oc1ccc2ccccc2c1C(NC(=O)C(C)C)c1cccc([N+](=O)[O-])c1` (configuration not stated) it was 29.1 µM [falling, single point]. Take `Cc1ccc(S(=O)(=O)N2CCC(C(=O)N[C@H](C(=O)N3CCN(C)CC3)C(C)C)CC2)cc1`: the cell number change is -40.7%. Further, under setting [2], the half-maximal activity concentration (AC50) is 3.66 µM [falling, full curve]. In addition, the half-maximal activity concentration (AC50) under setting [1] is 4.11 µM [falling, full curve]. `Cc1cc(=O)oc2cc(OCc3ccc(C(=O)N4CCN(c5ccccc5)CC4)cc3)ccc12`: the AC50 under setting [1] was 2.91 µM [rising, single point]. Regarding `O=C(/C=N/O)NCc1ccncc1`, the cell number change was -26.3%. The concentration at half-maximal activity (AC50) under setting [1] is 29.1 µM [falling, single point]. `CCCN(CCO)Cc1cccc(Cl)c1`: the cell number change is -102%. Further, the AC50 under setting [2] is 10.3 µM [falling, partial curve]. Further, under setting [1], the half-maximal activity concentration (AC50) is 14.6 µM [falling, partial curve]. Consider `CCc1ccc(OCC(=O)N2CC(C(N)=O)Oc3ccccc32)cc1` (configuration not stated), for which the cell number change was 4.17%. For `CN(C)c1ccc(N=Nc2ccccc2C(=O)OCC(=O)N(C)C2CCCCC2)cc1`, the cell number change is -46.7%. In addition, the AC50 under setting [2] is 18.4 µM [falling, single point]. Besides, the concentration at half-maximal activity (AC50) under setting [1] was 20.6 µM [falling, partial curve]. On to `Cc1occc1-c1nnc(SCC(=O)N2CCOCC2)o1`, for which the cell number change was -2.08%. For the same molecule, the AC50 under setting [1] is 0.731 µM [falling, full curve, poor fit]. With `CN(C)c1ccc(-c2nc3ccccc3n2C)cc1`, the cell number change is -9.86%. Further, under setting [1], the half-maximal activity concentration (AC50) is 0.58 µM [falling, full curve, poor fit]. On to `CC(C)=NNc1nc(-c2ccccc2)c(C)s1`, for which the cell number change came out at 28.6%. The concentration at half-maximal activity (AC50) under setting [1] was 3.66 µM [rising, full curve, poor fit].

As to `CCc1ccc(OCC(=O)N/N=C(\C)c2ccccc2OC(F)F)cc1`, the cell number change worked out at 6.61%. With `CC1Cc2ccccc2N1C(=O)CN1CCCCC1` (configuration not stated), the cell number change stood at 22.9%. For the molecule `Cc1ccc(NC(=O)CC2Oc3ccccc3NC2=O)c(C)c1` (configuration not stated), the cell number change was -13.6%. Also, under setting [1], the half-maximal activity concentration (AC50) was 0.326 µM [rising, full curve].

On to `O=C(c1cc(COc2ccccc2)on1)N1CCCC(CN2CCOCC2)C1` (configuration not stated), for which the cell number change is -17.3%. Further, the half-maximal activity concentration (AC50) under setting [1] was 6.51 µM [rising, single point].
